Assay results published in patent US20220003784A1 (ASSISTANCE PUBLIQUE H PITAUX DE MARSEILLE, published 2022).
No constants are given. Whether binding was seen depends on the method and setting. Binding seen in cells or lysates may run through a third protein. Some results given as binding are weak or reduced against the parent protein; the word gives no strength.

Sequences of proteins named here, by UniProt entry; tags and fusion partners are left off. Residues count along the entry.
UniProt P78536, residues 215-824: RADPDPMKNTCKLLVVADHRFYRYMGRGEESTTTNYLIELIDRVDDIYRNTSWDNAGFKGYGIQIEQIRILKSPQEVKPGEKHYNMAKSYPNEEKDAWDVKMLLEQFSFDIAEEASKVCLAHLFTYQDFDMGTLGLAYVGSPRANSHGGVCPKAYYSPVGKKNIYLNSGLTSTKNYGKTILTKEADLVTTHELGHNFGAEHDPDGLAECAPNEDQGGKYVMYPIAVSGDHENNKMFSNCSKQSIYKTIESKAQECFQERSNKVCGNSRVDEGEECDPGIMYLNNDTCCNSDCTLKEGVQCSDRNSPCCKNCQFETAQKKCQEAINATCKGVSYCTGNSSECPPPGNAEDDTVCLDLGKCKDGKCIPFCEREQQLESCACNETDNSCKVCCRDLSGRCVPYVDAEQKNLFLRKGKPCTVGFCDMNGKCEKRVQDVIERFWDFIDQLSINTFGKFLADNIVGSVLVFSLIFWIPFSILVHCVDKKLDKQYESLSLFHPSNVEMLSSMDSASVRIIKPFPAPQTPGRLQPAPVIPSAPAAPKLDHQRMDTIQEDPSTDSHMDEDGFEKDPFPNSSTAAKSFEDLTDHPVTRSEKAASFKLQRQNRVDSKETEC

Key:
[1] = biological target: T1, Human short CD146 protein (human) (UniProt P43121); experiment: co-immunoprecipitation from ECFC treated with TNF
T1 sequence: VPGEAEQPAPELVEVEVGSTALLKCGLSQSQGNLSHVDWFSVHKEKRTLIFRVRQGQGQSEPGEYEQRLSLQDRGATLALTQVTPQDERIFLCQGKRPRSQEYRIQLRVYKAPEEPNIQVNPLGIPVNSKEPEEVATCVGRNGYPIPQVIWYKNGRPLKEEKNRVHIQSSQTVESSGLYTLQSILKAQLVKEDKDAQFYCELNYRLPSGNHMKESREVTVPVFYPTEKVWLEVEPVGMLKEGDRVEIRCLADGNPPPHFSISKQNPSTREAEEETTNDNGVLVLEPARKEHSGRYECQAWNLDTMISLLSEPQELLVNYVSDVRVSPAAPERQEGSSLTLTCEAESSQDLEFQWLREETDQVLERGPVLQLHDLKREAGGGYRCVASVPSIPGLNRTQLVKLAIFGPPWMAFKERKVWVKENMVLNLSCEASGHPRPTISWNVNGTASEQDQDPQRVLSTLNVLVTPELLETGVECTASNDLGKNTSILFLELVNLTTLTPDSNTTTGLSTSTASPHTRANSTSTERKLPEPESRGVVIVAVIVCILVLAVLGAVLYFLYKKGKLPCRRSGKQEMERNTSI

[2] = biological target: T2, Human long CD146 protein (human) (UniProt P43121); experiment: co-immunoprecipitation from ECFC treated with TNF
T2 sequence: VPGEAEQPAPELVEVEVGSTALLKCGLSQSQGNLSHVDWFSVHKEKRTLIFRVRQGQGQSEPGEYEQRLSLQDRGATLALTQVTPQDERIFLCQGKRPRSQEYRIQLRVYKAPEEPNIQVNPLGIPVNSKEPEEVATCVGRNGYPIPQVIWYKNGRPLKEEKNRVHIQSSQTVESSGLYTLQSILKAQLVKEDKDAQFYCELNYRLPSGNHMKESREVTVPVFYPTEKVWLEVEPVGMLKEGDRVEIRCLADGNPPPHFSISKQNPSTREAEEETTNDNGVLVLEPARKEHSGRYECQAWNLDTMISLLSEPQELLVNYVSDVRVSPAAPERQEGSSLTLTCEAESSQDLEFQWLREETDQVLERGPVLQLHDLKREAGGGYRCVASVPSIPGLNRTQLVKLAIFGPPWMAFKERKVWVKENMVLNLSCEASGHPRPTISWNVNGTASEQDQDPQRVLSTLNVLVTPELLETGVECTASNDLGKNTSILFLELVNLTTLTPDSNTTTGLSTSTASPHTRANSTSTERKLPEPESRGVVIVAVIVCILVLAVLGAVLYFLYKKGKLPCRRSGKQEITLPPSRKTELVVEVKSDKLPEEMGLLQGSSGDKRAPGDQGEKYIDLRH

[3] = biological target: T2, Human long CD146 protein (human); experiment: co-immunoprecipitation from ECFC in control condition (ADAM10 immunoprecipitated, western blot for CD146 isoforms)

Tace (from UniProt P78536 215-824) (enzyme)
binding [1]: binds

B1: ADAM10 (protein)
chain: TTSAEKNTCQLYIQTDHLFFKYYGTREAVIAQISSHVKAIDTIYQTTDFSGIRNISFMVKRIRINTTADEKDPTNPFRFPNIGVEKFLELNSEQNHDDYCLAYVFTDRDFDDGVLGLAWVGAPSGSSGGICEKSKLYSDGKKKSLNTGIITVQNYGSHVPPKVSHITFAHEVGHNFGSPHDSGTECTPGESKNLGQKENGNYIMYARATSGDKLNNNKFSLCSIRNISQVLEKKRNNCFVESGQPICGNGMVEQGEECDCGYSDQCKDECCFDANQPEGRKCKLKPGKQCSPSQGPCCTAQCAFKSKSEKCRDDSDCAREGICNGFTALCPASDPKPNFTDCNRHTQVCINGQCAGSICEKYGLEECTCASSDGKDDKELCHVCCMKKMDPSTCASTGSVQWSRHFSGRTITLQPGSPCNDFRGYCDVFMRCRLVDADGPLARLKKAIFSPELYENIAEWIVAHWWAVLLMGIALIMLMAGFIKICSVHTPSSNPKLPPPKPLPGTLKRRRPPQPIQQPQRQRPRESYQMGHMRR
binding [2]: binds | binding [3]: binds
